Measured values taken from patent US10383956B2, “Fluorescent probe for detecting dipeptidyl peptidase IV” (The University of Tokyo, priority 2014, dated 2019).

Tested on: human esophageal cancer biopsy specimens (tumor area vs non-tumor area)
Assay: Imaging of human esophageal cancer biopsy specimens
Conditions: probe 50 μM; for AUC (ROC curve): biopsy specimens; for Cut-off: from ROC curve
Method: One biopsy sample each from a tumor area and non-tumor area were collected from patients undergoing preoperative upper endoscopy, and imaging and fluorescence intensity were measured over time after dropwise addition of various fluorescent probes (compounds 1-6).
In addition, since it was possible to gather ten or more cases for GP-HMRG (compound 1), EP-HMRG (compound 2), and PP-HMRG (compound 6), the cut-off value was calculated from the data using an ROC curve, and the sensitivity, specificity, correct diagnosis rate, positive predictive value, and negative predictive value were determined.

Nc1ccc2c(c1)Oc1cc(NC(=O)[C@@H]3CCCN3C(=O)[C@@H](N)CCC(=O)O)ccc1C21OCc2ccccc21 (stereo partly drawn) [Compound 2]
Correct diagnosis rate (5 min): 90.5 | Negative predictive value (5 min): 97.3 | Positive predictive value (5 min): 83.8 | Sensitivity (5 min): 96.9 | Specificity (5 min): 85.4 | AUC (ROC curve) (5 min): 0.93 | Cut-off (5 min): 0.37 | Correct diagnosis rate (10 min): 89.2 | Negative predictive value (10 min): 97.2 | Positive predictive value (10 min): 81.6 | Sensitivity (10 min): 96.9 | Specificity (10 min): 83.3 | AUC (ROC curve) (10 min): 0.93 | Cut-off (10 min): 0.67 | Correct diagnosis rate (30 min): 93.2 | Negative predictive value (30 min): 97.4 | Positive predictive value (30 min): 88.6 | Sensitivity (30 min): 96.9 | Specificity (30 min): 90.5 | AUC (ROC curve) (30 min): 0.95 | Cut-off (30 min): 1.77

NCC(=O)N1CCC[C@H]1C(=O)Nc1ccc2c(c1)Oc1cc(N)ccc1C21OCc2ccccc21 (stereo partly drawn) [Compound 1]
Correct diagnosis rate (5 min): 96.8 | Negative predictive value (5 min): 100 | Positive predictive value (5 min): 93.3 | Sensitivity (5 min): 100 | Specificity (5 min): 94.1 | AUC (ROC curve) (5 min): 0.99 | Cut-off (5 min): 0.54 | Correct diagnosis rate (10 min): 96.8 | Negative predictive value (10 min): 100 | Positive predictive value (10 min): 93.3 | Sensitivity (10 min): 100 | Specificity (10 min): 94.1 | AUC (ROC curve) (10 min): 0.98 | Cut-off (10 min): 1.02 | Correct diagnosis rate (30 min): 90.3 | Negative predictive value (30 min): 93.8 | Positive predictive value (30 min): 86.7 | Sensitivity (30 min): 92.9 | Specificity (30 min): 88.2 | AUC (ROC curve) (30 min): 0.95 | Cut-off (30 min): 2.10

Nc1ccc2c(c1)Oc1cc(NC(=O)[C@@H]3CCCN3C(=O)[C@@H]3CCCN3)ccc1C21OCc2ccccc21 (stereo partly drawn) [Compound 6]
Correct diagnosis rate (5 min): 82.1 | Negative predictive value (5 min): 72.2 | Positive predictive value (5 min): 100 | Sensitivity (5 min): 66.7 | Specificity (5 min): 100 | AUC (ROC curve) (5 min): 0.88 | Cut-off (5 min): 0.54 | Correct diagnosis rate (10 min): 89.3 | Negative predictive value (10 min): 91.7 | Positive predictive value (10 min): 87.5 | Sensitivity (10 min): 93.3 | Specificity (10 min): 84.6 | AUC (ROC curve) (10 min): 0.94 | Cut-off (10 min): 0.64 | Correct diagnosis rate (30 min): 88.5 | Negative predictive value (30 min): 90.9 | Positive predictive value (30 min): 86.7 | Sensitivity (30 min): 92.9 | Specificity (30 min): 83.3 | AUC (ROC curve) (30 min): 0.94 | Cut-off (30 min): 1.44
